Some of the results follow. Single values are uncertain, as repeats are few or missing.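 Cells were imaged in 1,536-well plates, and nuclei stained with an antibody against cleaved PARP were counted against all DNA-stained nuclei to give the apoptosis fraction. Screening doses were chosen to leave most cells alive, and resting and induced cleaved-PARP levels differ strongly between cell lines.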
The molecules below were run on A101D (assay: cleaved PARP positive nuclei fraction relative to DMSO control; melanoma cells; higher = more apoptosis). Conditions: library dose: low library concentration; 72 h.

| Structure (SMILES) | cleaved PARP positive nuclei fraction [%] |
| --- | --- |
| CO[C@@H]1[C@H](N(C)C(=O)c2ccccc2)C[C@H]2O[C@]1(C)n1c3ccccc3c3c4c(c5c6ccccc6n2c5c31)C(=O)NC4 [Midostaurin] + C[C@@H]1CCN(C(=O)CC#N)C[C@@H]1N(C)c1ncnc2[nH]ccc12 [CP690550] (first compound 0.08 µM, partner dose 1 µM) | 180 |
| O=C(CCCCCCC(=O)Nc1ccccc1)NO [vorinostat] + CC1(C)NC(=O)N(c2ccc([N+](=O)[O-])c(C(F)(F)F)c2)C1=O [nilutamide] (first compound 0.08 µM, partner dose 1 µM) | 59.6 |
| Cc1ccc(NC(=O)c2cccc(N(C)C)c2)cc1NC(=O)c1ccc(O)cc1 + COc1cc2c(Oc3ccc4[nH]c(C)cc4c3F)ncnc2cc1OCCCN1CCCC1 [cediranib] (first compound 2 µM, partner dose 0.4 µM) | 300 |
| OCc1c[nH]c2ccccc12 [Indole-3-carbinol] + CN(NC(=O)CC(=O)NN(C)C(=S)c1ccccc1)C(=S)c1ccccc1 [STA4783] (first compound 0.8 µM, partner dose 0.006 µM) | 186 |
| Cn1c(Nc2ccc(C(F)(F)F)cc2)nc2cc(Oc3ccnc(-c4ncc(C(F)(F)F)[nH]4)c3)ccc21 + NCC(=O)Nc1ccc(-n2nc(C(F)(F)F)cc2-c2ccc3c(ccc4ccccc43)c2)cc1 [OSU03012] (first compound 0.08 µM, partner dose 1 µM) | 289 |
| CO[C@@H]1[C@H](N(C)C(=O)c2ccccc2)C[C@H]2O[C@]1(C)n1c3ccccc3c3c4c(c5c6ccccc6n2c5c31)C(=O)NC4 [Midostaurin] + COc1cc2c(Oc3ccc4[nH]c(C)cc4c3F)ncnc2cc1OCCCN1CCCC1 [cediranib] (first compound 0.08 µM, partner dose 0.4 µM) | 230 |
| C=CCNC1=C2C[C@@H](C)C[C@H](OC)[C@H](O)[C@@H](C)/C=C(\C)[C@H](OC(N)=O)[C@@H](OC)/C=C\C=C(/C)C(=O)NC(=CC1=O)C2=O [Tanespimycin] + O=C(O)c1ccc(-c2c[nH]c3ncc(-c4ccccc4)cc23)cc1C1CCCC1 [GSK650394] (first compound 0.002 µM, partner dose 0.16 µM) | 130 |
| CC1(C)NC(=O)N(c2ccc([N+](=O)[O-])c(C(F)(F)F)c2)C1=O [nilutamide] + C=CCn1c(=O)c2cnc(Nc3ccc(N4CCN(C)CC4)cc3)nc2n1-c1cccc(C(C)(C)O)n1 [MK1775] (first compound 1 µM, partner dose 0.02 µM) | 390 |
| Nc1cccc2c1CN(C1CCC(=O)NC1=O)C2=O (centres undefined) [lenalidomide] + CC1(C)NC(=O)N(c2ccc([N+](=O)[O-])c(C(F)(F)F)c2)C1=O [nilutamide] (first compound 1 µM, partner dose 1 µM) | 39.5 |
| CO[C@@H]1[C@H](N(C)C(=O)c2ccccc2)C[C@H]2O[C@]1(C)n1c3ccccc3c3c4c(c5c6ccccc6n2c5c31)C(=O)NC4 [Midostaurin] + NCC(=O)Nc1ccc(-n2nc(C(F)(F)F)cc2-c2ccc3c(ccc4ccccc43)c2)cc1 [OSU03012] (first compound 0.08 µM, partner dose 1 µM) | 284 |
| C=CCn1c(=O)c2cnc(Nc3ccc(N4CCN(C)CC4)cc3)nc2n1-c1cccc(C(C)(C)O)n1 + C[C@@H]1CCN(C(=O)CC#N)C[C@@H]1N(C)c1ncnc2[nH]ccc12 [CP690550] (first compound 0.02 µM, partner dose 1 µM) | 179 |
| C=CCNC1=C2C[C@@H](C)C[C@H](OC)[C@H](O)[C@@H](C)/C=C(\C)[C@H](OC(N)=O)[C@@H](OC)/C=C\C=C(/C)C(=O)NC(=CC1=O)C2=O [Tanespimycin] + C=CCn1c(=O)c2cnc(Nc3ccc(N4CCN(C)CC4)cc3)nc2n1-c1cccc(C(C)(C)O)n1 [MK1775] (first compound 0.002 µM, partner dose 0.02 µM) | 116 |
| CC(C)(C)c1cnc(CSc2cnc(NC(=O)C3CCNCC3)s2)o1 + Cc1cc(N2CCOCC2)cc2[nH]c(-c3c(NC[C@@H](O)c4cccc(Cl)c4)cc[nH]c3=O)nc12 [BMS536924] (first compound 0.01 µM, partner dose 0.2 µM) | 36 |
| Cc1ccc(NC(=O)c2cccc(N(C)C)c2)cc1NC(=O)c1ccc(O)cc1 + NCC(=O)Nc1ccc(-n2nc(C(F)(F)F)cc2-c2ccc3c(ccc4ccccc43)c2)cc1 [OSU03012] (first compound 2 µM, partner dose 1 µM) | 114 |
| OCc1c[nH]c2ccccc12 [Indole-3-carbinol] + O=C(CCCCCCC(=O)Nc1ccccc1)NO [vorinostat] (first compound 0.8 µM, partner dose 0.08 µM) | 81.4 |
| C=CCn1c(=O)c2cnc(Nc3ccc(N4CCN(C)CC4)cc3)nc2n1-c1cccc(C(C)(C)O)n1 + NCC(=O)Nc1ccc(-n2nc(C(F)(F)F)cc2-c2ccc3c(ccc4ccccc43)c2)cc1 [OSU03012] (first compound 0.02 µM, partner dose 1 µM) | 102 |
| COCC[n+]1c2c(n(Cc3cnccn3)c1C)C(=O)c1ccccc1C2=O + CN(NC(=O)CC(=O)NN(C)C(=S)c1ccccc1)C(=S)c1ccccc1 [STA4783] (first compound 0.0004 µM, partner dose 0.006 µM) | 46.2 |
| Cn1nnc2c(C(N)=O)ncn2c1=O [temozolomide] + CC1(C)NC(=O)N(c2ccc([N+](=O)[O-])c(C(F)(F)F)c2)C1=O [nilutamide] (first compound 2 µM, partner dose 1 µM) | 92.2 |
| COCC[n+]1c2c(n(Cc3cnccn3)c1C)C(=O)c1ccccc1C2=O + O=C(CCCCCCC(=O)Nc1ccccc1)NO [vorinostat] (first compound 0.0004 µM, partner dose 0.08 µM) | 169 |

A stretch from further up, as a working copy:

| Structure (SMILES) | cleaved PARP positive nuclei fraction [%] |
| --- | --- |
| CO[C@@H]1[C@H](N(C)C(=O)c2ccccc2)C[C@H]2O[C@]1(C)n1c3ccccc3c3c4c(c5c6ccccc6n2c5c31)C(=O)NC4 [Midostaurin] + C[C@@H]1CCN(C(=O)CC#N)C[C@@H]1N(C)c1ncnc2[nH]ccc12 [CP690550] (first compound 0.08 µM, partner dose 1 µM) | 180 |
| O=C(CCCCCCC(=O)Nc1ccccc1)NO [vorinostat] + CC1(C)NC(=O)N(c2ccc([N+](=O)[O-])c(C(F)(F)F)c2)C1=O [nilutamide] (first compound 0.08 µM, partner dose 1 µM) | 59.6 |
